In experiment [1] the target is recombinant PXN WT (purified) (UniProt P49023). Nature of the experiment: pull-down.
Experiment [2] concerns the target Flag-tagged PXN WT (UniProt P49023). The experiment is described as follows: co-IP.

Protein sequences, listed by entry. Tags and fused reporters are not part of them.
UniProt P49023: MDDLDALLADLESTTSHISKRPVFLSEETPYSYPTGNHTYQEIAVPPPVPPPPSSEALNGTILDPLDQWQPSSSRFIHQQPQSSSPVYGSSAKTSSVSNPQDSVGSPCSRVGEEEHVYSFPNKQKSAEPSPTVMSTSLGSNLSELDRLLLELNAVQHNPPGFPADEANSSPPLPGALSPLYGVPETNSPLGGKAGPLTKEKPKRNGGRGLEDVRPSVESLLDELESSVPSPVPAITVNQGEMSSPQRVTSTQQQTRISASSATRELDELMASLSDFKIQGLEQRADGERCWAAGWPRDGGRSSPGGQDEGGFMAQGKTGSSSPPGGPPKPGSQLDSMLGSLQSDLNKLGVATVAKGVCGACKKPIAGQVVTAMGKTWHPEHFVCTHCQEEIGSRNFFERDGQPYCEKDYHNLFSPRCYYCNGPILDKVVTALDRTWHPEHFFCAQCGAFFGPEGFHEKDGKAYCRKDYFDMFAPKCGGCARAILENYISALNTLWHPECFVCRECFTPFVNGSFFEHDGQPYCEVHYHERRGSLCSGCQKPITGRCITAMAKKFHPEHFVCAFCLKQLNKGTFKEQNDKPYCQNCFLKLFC
UniProt Q96AC1: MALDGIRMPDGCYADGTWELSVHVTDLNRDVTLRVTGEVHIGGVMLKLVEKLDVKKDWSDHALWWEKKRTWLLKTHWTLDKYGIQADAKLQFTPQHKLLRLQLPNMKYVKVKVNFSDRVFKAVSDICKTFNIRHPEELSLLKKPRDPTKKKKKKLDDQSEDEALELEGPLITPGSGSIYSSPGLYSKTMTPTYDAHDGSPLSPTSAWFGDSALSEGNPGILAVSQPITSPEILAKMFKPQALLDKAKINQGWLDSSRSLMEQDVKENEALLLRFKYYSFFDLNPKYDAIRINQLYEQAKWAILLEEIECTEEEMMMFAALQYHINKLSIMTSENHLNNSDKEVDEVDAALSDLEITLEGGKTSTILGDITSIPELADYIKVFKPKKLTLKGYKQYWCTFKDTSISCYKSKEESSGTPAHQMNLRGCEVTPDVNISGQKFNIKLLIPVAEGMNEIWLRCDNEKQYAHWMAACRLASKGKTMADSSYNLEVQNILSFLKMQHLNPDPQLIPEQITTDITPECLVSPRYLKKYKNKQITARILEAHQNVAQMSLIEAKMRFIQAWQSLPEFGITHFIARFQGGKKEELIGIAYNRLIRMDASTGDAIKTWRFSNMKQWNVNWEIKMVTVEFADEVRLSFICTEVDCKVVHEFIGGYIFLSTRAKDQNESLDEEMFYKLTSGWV
UniProt O43294: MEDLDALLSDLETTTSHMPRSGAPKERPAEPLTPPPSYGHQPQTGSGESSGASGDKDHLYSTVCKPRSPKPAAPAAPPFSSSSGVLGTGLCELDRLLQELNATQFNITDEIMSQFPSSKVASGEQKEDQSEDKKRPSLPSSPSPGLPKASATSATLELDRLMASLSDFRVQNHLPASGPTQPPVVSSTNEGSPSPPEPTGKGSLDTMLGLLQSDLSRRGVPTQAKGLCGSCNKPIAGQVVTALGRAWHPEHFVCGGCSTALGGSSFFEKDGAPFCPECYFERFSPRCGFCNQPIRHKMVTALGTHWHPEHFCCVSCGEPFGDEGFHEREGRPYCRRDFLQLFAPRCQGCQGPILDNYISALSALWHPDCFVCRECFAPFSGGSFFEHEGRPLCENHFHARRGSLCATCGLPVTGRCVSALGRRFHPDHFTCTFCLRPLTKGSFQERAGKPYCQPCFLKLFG

Results are given in words; binding and its absence hold for the method and conditions named. For part of these data: In cells and extracts the contact can be indirect. Some results given as binding are weak or reduced against the parent protein; the word gives no strength.

As to “recombinant Kindlin-2 (purified) (from UniProt Q96AC1 1-680)”, in experiment [1], the binding result is reported as “binds”.

On to “HIC-5 (endogenous, HeLa) (from UniProt O43294 1-461)”, for which the binding entry in experiment [2] is “binds”.

“Kindlin-2 (endogenous, HeLa) (from UniProt Q96AC1 1-680)”: in experiment [2], the binding entry is on record as “binds”.

The record behind these values is doi:10.1101/2022.12.17.520852.
